This is one part of the list.
Each compound was assayed on T1, CTL2-GFP (C. trachomatis L2/434/Bu, GFP-expressing). Settings: bulk GFP, single well; 28.5 h, 10 µM; inhibitor.
T1 construct: L2/434/Bu, GFP-expressing
Design: species or system HeLa; Intracellular C. trachomatis growth in HeLa cells, bulk GFP fluorescence relative to DMSO

| SMILES | % of control remaining [%] |
| --- | --- |
| CCn1c(CN2CC(n3nc(C)cc3C)C2)nc2c(F)cccc21 [CBK306220] | 114.378 |
| CCOCCCNC(=O)c1cnn2c(C)c(CC)c(C)nc12 [CBK162129] | 140.064 |
| COc1cccc(OCC(=O)NCC(c2ccsc2)N2CCCC2)c1 (stereo not shown) [CBK304630] | 90.7488 |
| c1cnc2c(OCc3nc4ccccc4[nH]3)cccc2c1 [CBK268556] | 91.6229 |
| C[C@@H](Nc1nc(-c2ccccc2)cnc1N)c1ccccc1 [CBK063728] | 101.594 |
| O=C(CN1C(=O)c2ccccc2C1=O)Nc1cccc2ncccc12 [CBK262761] | 100 |
| Cn1c(CN2CCN(C(=O)c3ccco3)CC2)nc2cc([N+](=O)[O-])ccc21 [CBK268473] | 80.2133 |
| CCCNc1cc(C)nc2cc(-c3ccc(OC)c(OC)c3)nn12 [CBK287805] | 137.471 |
| Cc1cc(C(=O)NC(C)Cn2nc(C)cc2C)c2cccc(C)c2n1 (stereo not shown) [CBK281635] | 120.929 |
| Cc1ccc(C(=O)NCc2ccco2)c(NCc2cccnc2)n1 [CBK076383] | 192.119 |
| OC1(CN2CCCC2)COCCN(c2nnc(-c3ccccc3)s2)C1 (stereo not shown) [CBK306558] | 129.358 |
| CC(C)c1ccc(N2C(=O)[C@@H]3C[C@@H](NC(=O)c4cccs4)CCN3C2=O)cc1 [CBK289541] | 113.719 |
| FC(F)(F)c1cccc(-c2nccnc2NCc2cccs2)c1 [CBK037298] | 116.956 |
| Cc1nn(C)cc1-c1c(C#N)c(N)nc2c1CN(Cc1ccco1)CC2 [CBK306722] | 141.488 |
| CCOc1ccc(N2C(=O)CC(NC3CCN(c4ncccn4)CC3)C2=O)cc1 (stereo not shown) [CBK269972] | 103.46 |
| COCCNc1nc(-c2ccccc2CO)cnc1N [CBK063575] | 128.214 |
| CC12CN3CC(C)(CN(C1)C3c1ccc(Br)cc1)C2=O (stereo not shown) [CBK261452] | 125.491 |
| Cn1cnnc1SCCNC(=O)N1CCc2sccc2C1 [CBK307385] | 143.819 |
| CC(C)COC(=O)CCNc1n[nH]c(=O)[nH]c1=O [CBK293920] | 127.394 |
| Cc1c(C(=O)O)sc(S(=O)(=O)N2CCN(C(=O)CC(C)c3ccccc3)CC2)c1C(=O)O (stereo not shown) [CBK297143] | 140.518 |
| Cc1n[nH]c(C)c1CCC(=O)N/N=C/c1cccc(O)c1 [CBK262910] | 138.231 |
| CC(C)c1csc(C2CCN(C(=O)CCc3ccsc3)CC2)n1 [CBK305327] | 107.664 |
| O=C(O)CCc1nc2nc(-c3ccco3)cc(C(F)(F)F)n2n1 [CBK286889] | 136.199 |
| O=C(Nc1cccc(-c2nnco2)c1)C1CCCCC1 [CBK296662] | 155.943 |
| COc1cccc(NC(=O)C2CCCCC2C(=O)O)c1 (stereo not shown) [CBK262410] | 108.566 |
| CC(C)NC(=O)CN1CCC(N(C)Cc2cccc(C(F)(F)F)c2)CC1 [CBK305429] | 104.162 |
| C/C(=N\NC(=N)N)C(F)(F)F [CBK023019G] | 145.149 |

| SMILES | % of control remaining [%] |
| --- | --- |
| COCC(C)NC(=O)Cn1c(-c2ccc(F)cc2)cc2cccnc21 (stereo not shown) [CBK284863] | 119.339 |
| COC(=O)c1c(NC(=S)Nc2cnccn2)sc2c1CCC(C)C2 (stereo not shown) [CBK266893] | 140.478 |
| CC(C)C(=O)N1CCC(Cn2nc(-c3ccccc3)ccc2=O)CC1 [CBK284114] | 119.785 |
| CN(C)c1ccc(/C=C/c2noc(-c3ccccc3O)n2)cc1 [CBK268438] | 141.422 |
| COc1ccc(OC)c(N/C=C(/C#N)c2nc(-c3cc4c(ccc5ccccc54)oc3=O)cs2)c1 [CBK262991] | 110.279 |
| Cn1nc(-c2ccccc2)cc1[C@H]1CN2CC[C@H]1C[C@@H]2CNC(=O)N1CCOCC1 [CBK289094] | 102.62 |
| COc1ccc(CCCC(=O)Nc2cc3cccnc3c(Br)n2)cc1 [CBK119486] | 104.359 |
| CCn1cc(-c2cncn2CCCn2ccnc2C(C)C)cn1 [CBK282244] | 122.921 |
| NC(=O)c1nnc2ccc(Cl)cc2c1N [CBK026161] | 142.579 |
| COCCn1c(=O)n(Cc2ccccc2)c2cccnc21 [CBK283964] | 121.801 |
| O=C1c2ccccc2C(=O)N1CSc1nnc(SCN2C(=O)c3ccccc3C2=O)s1 [CBK263694] | 117.678 |
| O=C(c1cccc(-c2cncc(-c3ccc(O)cc3)n2)c1)N1CCOCC1 [CBK123796] | 100 |
| O=C(O)COc1ccc(/C=N/n2cnnc2)cc1Cl [CBK263902] | 113.736 |
| OC1(c2ccccc2)CCN(Cc2ccccc2-n2cccn2)C1 (stereo not shown) [CBK282795] | 124.984 |
| Cc1cccc(-c2nc3ccc(NC(=O)CCC(=O)O)cc3o2)c1 [CBK269773] | 112.443 |
| Cc1ccc(CN(C)CC(=O)Nc2cc(C(F)(F)F)ccc2Cl)o1 [CBK306085] | 116.337 |
| CC(=O)Nc1ccc(-c2ccc(C(=O)N3CCN(C4CCN(C)CC4)CC3)cn2)cc1 [CBK158824] | 118.378 |
| Cc1ccc(S(=O)(=O)NC[C@H]2C[C@@H]3CC[N@]2C[C@@H]3CN2CCOCC2)cc1 [CBK288758] | 119.191 |
| O=C(Nc1cccc2[nH]ccc12)c1ccoc1 [CBK159659] | 115.986 |
| Cc1nn(C)cc1-c1cc(C(=O)Nc2ccccc2C2CC2)on1 [CBK281412] | 117.192 |
| COc1cncc(C(NC(=O)c2ccn3nnnc3c2)[C@H]2C[C@@H](O)C2)c1 (stereo partly shown) [CBK306686] | 101.607 |
| CC(C)CC(=O)N1CCC(c2nnc3n2CCCCC3)CC1 [CBK284629] | 152.372 |
| CS(=O)(=O)c1ccc(Cn2ccnc(N3CCN(C(=O)Cc4cccs4)CC3)c2=O)cc1 [CBK153773] | 122.142 |
| O=C(Cc1ccc2c(c1)CCCO2)Nc1c(OCCn2cccn2)ccc2ccccc12 [CBK285679] | 123.43 |
| O=C(Cc1ccc(F)cc1)N1CCC(c2cccc(Cc3ccccc3F)n2)CC1 [CBK286213] | 74.3629 |
| Cc1cccc(N2C(=O)c3ccc(C(=O)c4ccc5c(c4)C(=O)N(c4cccc(C)n4)C5=O)cc3C2=O)n1 [CBK263069] | 103.487 |
| N#CCCCN1CCC2(CC1)OCCc1c2[nH]c2ccc(Br)cc12 [CBK040105] | 114.561 |

An excerpt from further up, for reference:

| SMILES | % of control remaining [%] |
| --- | --- |
| CC(C)CC(=O)N1CCC(c2nnc3n2CCCCC3)CC1 [CBK284629] | 152.372 |
| CS(=O)(=O)c1ccc(Cn2ccnc(N3CCN(C(=O)Cc4cccs4)CC3)c2=O)cc1 [CBK153773] | 122.142 |
| O=C(Cc1ccc2c(c1)CCCO2)Nc1c(OCCn2cccn2)ccc2ccccc12 [CBK285679] | 123.43 |

Remaining list, next part.

| SMILES | % of control remaining [%] |
| --- | --- |
| COc1ccc(-c2nn(CN3CCC(C(N)=O)CC3)c(=S)n2-c2ccccc2)cc1OC [CBK264299] | 133.343 |
| CCOC(=O)N1CCC(NS(=O)(=O)c2ccc(F)cc2)CC1 [CBK045455] | 100.231 |
| IC1COC(c2ccccc2)OC1 (stereo not shown) [CBK021109] | 89.7919 |
| Cc1ccc(CC(=O)N2CCCC2c2n[nH]cc2-c2ccncc2)cc1 (stereo not shown) [CBK283424] | 121.839 |
| O=C(CSCc1c(F)cccc1Cl)NCc1ccccc1Cl [CBK269155] | 131.141 |
| Cc1ccc(C(O)CN2CCC(O)(c3ccccc3F)CC2)cc1 (stereo not shown) [CBK283310] | 156.108 |
| Cc1cc(O)cc(=O)n1Cc1ccccn1 [CBK291159] | 115.209 |
| CCCC(=O)N1CCCC([C@@H]2C[C@H](C(F)F)n3nc(C)cc3N2)C1 (stereo partly shown) [CBK284721] | 163.187 |
| CC1(C)[C@H](Cc2cc(CN3CCOCC3)on2)C[C@@H]1NC(=O)C1CC1 [CBK289246] | 122.815 |
| Cn1ccnc1Sc1ncccc1C(F)(F)F [CBK093759] | 119.243 |
| N#Cc1cccc(C(=O)N2CCCN(Cc3ccc(Cl)cc3)CC2)c1 [CBK305323] | 105.4 |
| O=C(CCc1ccccc1)N/N=C/c1cc2c(cc1[N+](=O)[O-])OCO2 [CBK261221] | 88.5479 |
| Cc1cc(C)n2c(SCC(=O)c3ccccc3)nnc2n1 [CBK265378] | 123.007 |
| Cc1nc(CN2CCN(C(=O)C3C4CCCCC43)CC2)cs1 (stereo not shown) [CBK281607] | 136.394 |
| C=CCO[C@@H]1C[C@H]2C(=O)N3CCN(C(=O)NC4CCCCC4)C[C@H]3C(=O)N2C1 [CBK289619] | 131.856 |
| COc1ccc(C(=O)N/C(=C/c2ccc([N+](=O)[O-])cc2)c2nc3ccc(C(F)(F)F)cc3[nH]2)cc1OC [CBK263199] | 84.8907 |
| CCOc1ccc(-n2c(SCc3ccc(Br)cc3)nnc2-c2ccncc2)cc1 [CBK266017] | 140.235 |
| NC(=O)C1(Cc2ccc(-c3ccccc3)cc2)CCN(C(=O)CCc2ccccc2)CC1 [CBK285772] | 73.1588 |
| c1ccc2c(CNCc3ccc4c(c3)OCO4)c[nH]c2c1 [CBK262159] | 118.76 |
| Cc1ccccc1C(=O)NCC(=O)Nc1ccc(Cl)nc1 [CBK091335] | 117.663 |
| CC(=O)Nc1ccc(Cc2nc(C3CC3)no2)cc1 [CBK305197] | 113.857 |
| COC1C(O)C(CO)OC1n1cc(F)c(=O)[nH]c1=O (stereo not shown) [CBK201253] | 140.461 |
| NCCc1c[nH]c2ccc(OCC(=O)O)cc12 [CBK265853C] | 192.072 |
| O=c1[nH]c(=O)c2cc(S(=O)(=O)NCC3(c4ccccc4)CCCC3)ccc2[nH]1 [CBK286387] | 108.427 |
| CN(C)CCCNC(=O)Nc1cccc(-c2nc(-c3ccc(C#N)cc3)cnc2N)c1 [CBK116287] | 33.1355 |

Fetched by structure from the entries so far:

| SMILES | % of control remaining [%] |
| --- | --- |
| O=C(Nc1cccc(-c2nnco2)c1)C1CCCCC1 [CBK296662] | 155.943 |
| CCOc1ccc(N2C(=O)CC(NC3CCN(c4ncccn4)CC3)C2=O)cc1 (stereo not shown) [CBK269972] | 103.46 |
| c1ccc2c(CNCc3ccc4c(c3)OCO4)c[nH]c2c1 [CBK262159] | 118.76 |

— paper PMC12040169 (PLOS Biology, 2025)
